Experimental data published in article PMC12317139.
Results are given in words; binding and its absence hold for the method and conditions named. Binding seen in cells or lysates may run through a third protein. Some binding calls cover weakened binding; strength is not graded here. Sequences can lack the tags named with a protein.

Amino acid sequences for entries named in this document (tags omitted).
UniProt Q9Z140: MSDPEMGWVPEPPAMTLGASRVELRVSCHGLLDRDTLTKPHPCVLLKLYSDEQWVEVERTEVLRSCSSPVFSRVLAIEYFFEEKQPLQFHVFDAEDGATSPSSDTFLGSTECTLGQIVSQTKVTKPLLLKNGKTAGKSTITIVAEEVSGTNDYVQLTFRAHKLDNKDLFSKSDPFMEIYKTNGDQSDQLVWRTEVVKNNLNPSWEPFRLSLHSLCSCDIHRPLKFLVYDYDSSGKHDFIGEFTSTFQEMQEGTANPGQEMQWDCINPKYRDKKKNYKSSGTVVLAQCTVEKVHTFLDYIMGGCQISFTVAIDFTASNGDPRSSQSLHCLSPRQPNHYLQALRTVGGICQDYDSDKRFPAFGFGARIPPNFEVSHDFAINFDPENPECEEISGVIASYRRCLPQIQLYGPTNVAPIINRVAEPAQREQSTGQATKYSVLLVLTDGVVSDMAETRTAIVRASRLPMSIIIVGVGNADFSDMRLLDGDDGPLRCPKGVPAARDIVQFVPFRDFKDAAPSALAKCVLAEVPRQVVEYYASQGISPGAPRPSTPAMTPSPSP

Target: T1, TRPM3 with a C-terminal RFP tag (TRPM3-RFP) (mouse) (UniProt J9SQF3)
T1 sequence: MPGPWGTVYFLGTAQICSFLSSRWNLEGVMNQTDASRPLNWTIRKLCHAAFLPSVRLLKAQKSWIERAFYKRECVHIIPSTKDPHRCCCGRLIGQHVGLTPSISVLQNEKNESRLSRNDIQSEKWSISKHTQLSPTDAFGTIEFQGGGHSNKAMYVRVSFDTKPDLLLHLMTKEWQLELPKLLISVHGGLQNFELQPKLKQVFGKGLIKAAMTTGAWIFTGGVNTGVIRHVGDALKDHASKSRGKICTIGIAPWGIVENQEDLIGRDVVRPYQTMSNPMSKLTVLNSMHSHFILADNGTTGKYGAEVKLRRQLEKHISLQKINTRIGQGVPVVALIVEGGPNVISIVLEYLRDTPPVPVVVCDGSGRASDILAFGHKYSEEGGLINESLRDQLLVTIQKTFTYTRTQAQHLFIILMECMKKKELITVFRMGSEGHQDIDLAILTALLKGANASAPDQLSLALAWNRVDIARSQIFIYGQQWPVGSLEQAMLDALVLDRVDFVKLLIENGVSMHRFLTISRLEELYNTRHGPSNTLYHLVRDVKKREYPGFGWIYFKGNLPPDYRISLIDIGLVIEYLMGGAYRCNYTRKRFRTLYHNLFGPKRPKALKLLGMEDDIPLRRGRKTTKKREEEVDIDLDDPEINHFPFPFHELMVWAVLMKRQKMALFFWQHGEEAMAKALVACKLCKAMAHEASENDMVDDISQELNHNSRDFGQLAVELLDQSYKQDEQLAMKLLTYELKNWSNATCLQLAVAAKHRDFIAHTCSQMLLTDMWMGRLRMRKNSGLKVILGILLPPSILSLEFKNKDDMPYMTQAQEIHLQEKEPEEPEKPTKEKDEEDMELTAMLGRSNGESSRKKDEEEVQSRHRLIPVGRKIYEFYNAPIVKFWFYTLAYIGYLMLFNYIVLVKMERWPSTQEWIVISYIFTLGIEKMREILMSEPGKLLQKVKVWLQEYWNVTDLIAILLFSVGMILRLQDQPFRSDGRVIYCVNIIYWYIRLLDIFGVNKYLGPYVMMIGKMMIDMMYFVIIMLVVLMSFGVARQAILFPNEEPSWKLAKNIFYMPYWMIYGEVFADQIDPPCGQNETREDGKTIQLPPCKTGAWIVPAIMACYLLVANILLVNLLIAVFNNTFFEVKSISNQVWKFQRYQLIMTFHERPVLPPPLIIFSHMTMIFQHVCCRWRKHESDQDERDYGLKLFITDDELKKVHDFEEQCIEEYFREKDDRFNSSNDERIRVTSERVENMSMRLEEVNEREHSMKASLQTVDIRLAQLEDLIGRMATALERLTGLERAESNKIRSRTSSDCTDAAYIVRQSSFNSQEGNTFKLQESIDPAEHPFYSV
Test: co-IP; HEK293T cells co-transfected; lysate incubated with anti-RFP or anti-Flag antibody (2 μg, 4 °C, 4 h), then Protein A/G PLUS-Agarose overnight at 4 °C; five PBS washes; western blot with anti-Flag / anti-RFP; IgG control

binding: binds
Substance: Copine-6 carrying a C-terminal Flag-tag (Copine-6-Flag) (from UniProt Q9Z140 1-557)
